The numbers were not newly measured in publication PMC10779086, “3-O-Methyltolcapone and Its Lipophilic Analogues Are Potent Inhibitors of Transthyretin Amyloidogenesis with High Permeability and Low Toxicity” (International Journal of Molecular Sciences, 2023), which cites them from elsewhere.

The series has as its system TTR. Particulars: cited from earlier work.

Molecules are shown by their SMILES.

For the molecule `Cc1n[nH]c(C)c1CCCOc1cc(C(=O)O)ccc1F` [AG10], for the setting “standard single-site binding model”, the ΔH is -13.6 kcal/mol.
Regarding `Cc1ccc(C(=O)c2cc(O)c(O)c([N+](=O)[O-])c2)cc1` [tolcapone], where the note is “sequential model”, the “ΔH (first binding site)” value is -9.7 kcal/mol and the “ΔH (second binding site)” value is -9.7 kcal/mol.
